PMC6941992, “Polar recruitment of RLD by LAZY1-like protein during gravity signaling in root branch angle control” (Nature Communications, 2020)
These are yes or no findings as the source states them, for the method shown. In cells and extracts the contact can be indirect. A yes stands for co-enrichment or nearness to the bait. Other partners may have been found.

Key:
[1] = target: LZY2-GFP (Arabidopsis thaliana); assay: affinity purification with mass spectrometry; μMACS anti-GFP microbeads on extracts of two-week-old 35S:LZY2-GFP or 35S:LZY3-GFP seedlings (50 mM Tris-HCl pH 8.0, 150 mM NaCl, 1 mM EDTA, 1% Triton X-100), 2 h at 4 °C; LC-MS/MS; proteins also found with 35S:GFP excluded
[2] = target: LZY3-GFP (Arabidopsis thaliana); assay: as above

binding [1]: binds | binding [2]: binds
B1: RLD1 (RCC1-like domain protein 1) (protein, UniProt Q947D2 1-1103)
chain: MADLVTYSNADHNLEQALITLKKGTQLLKYGRKGKPKFYPFRLSSDEKSLIWISSSGEKRLKLASVSKIVPGQRTAVFQRYLRPEKDYLSFSLLYNGKKKSLDLICKDKVEAEIWIGGLKTLISTGQGGRSKIDGWSGGGLSVDASRELTSSSPSSSSASASRGHSSPGTPFNIDPITSPKSAEPEVPPTDSEKSHVALDNKNMQTKVSGSDGFRVSVSSAQSSSSHGSAADDSDALGDVYIWGEVICDNVVKVGIDKNASYLTTRTDVLVPKPLESNIVLDVHQIACGVRHAAFVTRQGEIFTWGEESGGRLGHGIGKDVFHPRLVESLTATSSVDFVACGEFHTCAVTLAGELYTWGDGTHNVGLLGHGSDISHWIPKRIAGSLEGLHVASVSCGPWHTALITSYGRLFTFGDGTFGVLGHGDKETVQYPREVESLSGLRTIAVSCGVWHTAAVVEIIVTQSNSSSVSSGKLFTWGDGDKNRLGHGDKDPRLKPTCVPALIDYNFHKIACGHSLTVGLTTSGQVFTMGSTVYGQLGNLQTDGKLPCLVEDKLASEFVEEISCGAYHVAALTSRNEVYTWGKGANGRLGHGDLEDRKVPTIVEALKDRHVKYIACGSNYTAAICLHKWVSGAEQSQCSTCRLAFGFTRKRHNCYNCGLVHCHSCSSKKAFRAALAPSAGRLYRVCDSCYVKLSKVSEINDTNRRNSAVPRLSGENRDRLDKSEIRLAKFGTSNMDLIKQLDSKAAKQGKKTDTFSLGRNSQLPSLLQLKDAVQSNIGDMRRATPKLAQAPSGISSRSVSPFSRRSSPPRSATPMPSTSGLYFPVGIADNMKKTNEILNQEIVKLRTQVDSLTQKCEFQEVELQNSVKKTQEALALAEEESAKSRAAKEAIKSLIAQLKDVAEKLPPGESVKLACLQNGLDQNGFHFPEENGFHPSRSESMTSSISSVAPFDFAFANASWSNLQSPKQTPRASERNSNAYPADPRLSSSGSVISERIEPFQFQNNSDNGSSQTGVNNTNQVEAEWIEQYEPGVYITLVALHDGTRDLRRVRFSRRRFGEHQAETWWSENREKVYEKYNVRVSEKSTASQTHRDRDEEEEDIPH
